In assay [1] the target is T1, N-terminal cleavage product of endogenous USP1 (human) (UniProt O94782).
T1 sequence: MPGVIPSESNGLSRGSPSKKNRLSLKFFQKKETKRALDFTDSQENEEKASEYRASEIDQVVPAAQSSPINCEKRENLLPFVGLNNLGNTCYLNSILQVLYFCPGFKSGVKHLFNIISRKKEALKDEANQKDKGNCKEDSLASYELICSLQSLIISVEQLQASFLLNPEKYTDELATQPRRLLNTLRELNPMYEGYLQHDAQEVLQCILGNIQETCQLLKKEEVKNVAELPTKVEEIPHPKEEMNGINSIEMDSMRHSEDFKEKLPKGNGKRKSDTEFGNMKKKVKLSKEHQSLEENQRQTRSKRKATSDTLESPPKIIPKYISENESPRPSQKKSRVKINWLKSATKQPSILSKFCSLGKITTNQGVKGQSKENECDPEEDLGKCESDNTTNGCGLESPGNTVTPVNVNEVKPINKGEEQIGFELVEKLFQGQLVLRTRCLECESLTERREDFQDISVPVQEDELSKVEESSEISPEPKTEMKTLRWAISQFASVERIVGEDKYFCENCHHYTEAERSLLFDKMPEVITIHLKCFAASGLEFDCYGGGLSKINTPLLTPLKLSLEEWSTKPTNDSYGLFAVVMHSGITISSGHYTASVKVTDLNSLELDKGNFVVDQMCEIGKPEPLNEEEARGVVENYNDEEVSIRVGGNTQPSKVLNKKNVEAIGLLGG
The assay is described as follows: anti-Flag immunoprecipitation from HeLa cells, anti-USP1 immunoblot.

Amino acid sequences for entries named in this document (tags omitted). A change or cut given only in a name is not applied to a line headed by its entry.
UniProt Q8TAF3: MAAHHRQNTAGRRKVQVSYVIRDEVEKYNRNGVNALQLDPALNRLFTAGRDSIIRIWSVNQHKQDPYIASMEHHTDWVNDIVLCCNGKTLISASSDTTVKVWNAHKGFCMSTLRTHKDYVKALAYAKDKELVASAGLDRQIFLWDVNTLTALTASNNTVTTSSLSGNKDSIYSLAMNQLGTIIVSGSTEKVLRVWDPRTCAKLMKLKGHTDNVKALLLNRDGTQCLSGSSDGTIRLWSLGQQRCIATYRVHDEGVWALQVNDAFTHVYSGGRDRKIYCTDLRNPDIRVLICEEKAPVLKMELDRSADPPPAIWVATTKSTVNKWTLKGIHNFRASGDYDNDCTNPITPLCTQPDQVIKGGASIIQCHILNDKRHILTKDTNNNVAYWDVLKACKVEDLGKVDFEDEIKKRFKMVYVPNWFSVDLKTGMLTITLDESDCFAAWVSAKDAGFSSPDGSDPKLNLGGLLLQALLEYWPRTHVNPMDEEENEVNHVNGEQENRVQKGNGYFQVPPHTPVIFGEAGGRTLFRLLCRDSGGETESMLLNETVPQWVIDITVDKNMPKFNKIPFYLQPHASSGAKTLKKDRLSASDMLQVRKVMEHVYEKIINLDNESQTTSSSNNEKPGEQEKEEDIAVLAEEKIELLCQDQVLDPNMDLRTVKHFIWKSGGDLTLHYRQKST

For assay [2], the target named is T2, N-terminal cleavage product of c-Myc-tagged USP1 (rabbit reticulocyte lysate) (human) (UniProt O94782).
T2 sequence: T1 sequence
The assay can be described thus: immunoprecipitation of UAF1 from rabbit reticulocyte lysate reactions.

The target in assay [3] is T1, N-terminal cleavage product of endogenous USP1 (human). The assay can be described thus: anti-Flag immunoprecipitation of Flag-HA-UAF1 from HeLa cells, anti-USP1 immunoblot [D].
Assay [4] shares this target. The assay can be described thus: anti-Flag immunoprecipitation from transiently transfected 293T cells, anti-USP1 immunoblot.
Assay [5] addresses T3, USP1 with N-terminal His tag, amino acids 670-71 changed from GG to AA (non-cleavable), purified from Sf9 cells (human) (UniProt O94782).
T3 sequence: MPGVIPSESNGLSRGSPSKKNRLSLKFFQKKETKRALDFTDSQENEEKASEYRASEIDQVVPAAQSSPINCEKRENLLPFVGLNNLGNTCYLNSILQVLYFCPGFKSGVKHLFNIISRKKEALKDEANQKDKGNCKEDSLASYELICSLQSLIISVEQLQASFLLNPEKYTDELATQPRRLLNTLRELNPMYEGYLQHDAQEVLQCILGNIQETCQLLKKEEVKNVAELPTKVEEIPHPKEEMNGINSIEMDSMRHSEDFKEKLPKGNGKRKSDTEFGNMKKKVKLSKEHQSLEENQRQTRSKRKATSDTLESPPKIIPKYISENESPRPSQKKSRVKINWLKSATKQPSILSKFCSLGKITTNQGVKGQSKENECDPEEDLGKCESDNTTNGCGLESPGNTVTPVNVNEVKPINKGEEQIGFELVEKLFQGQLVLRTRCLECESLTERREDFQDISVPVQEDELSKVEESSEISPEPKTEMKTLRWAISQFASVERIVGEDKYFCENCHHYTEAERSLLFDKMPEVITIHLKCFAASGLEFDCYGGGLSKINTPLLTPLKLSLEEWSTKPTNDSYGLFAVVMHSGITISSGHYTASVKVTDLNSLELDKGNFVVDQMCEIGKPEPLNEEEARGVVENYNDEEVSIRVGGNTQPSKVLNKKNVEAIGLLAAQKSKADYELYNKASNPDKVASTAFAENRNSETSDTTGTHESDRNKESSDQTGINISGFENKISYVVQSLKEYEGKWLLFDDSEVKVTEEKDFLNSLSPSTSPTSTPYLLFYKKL
The assay is described as follows: Ni-NTA co-purification through the His tag of USP1 from co-infected SF9 cells, then ion exchange and gel filtration.

Results are given in words; binding and its absence hold for the method and conditions named. For part of these data: In cells and extracts the contact can be indirect. Some entries that bind do so weakly or less than the wild type. For part of these data: Sequences can lack the tags named with a protein.

For the substance “Flag-HA-tagged UAF1, expressed in and purified from HeLa cells (from UniProt Q8TAF3 1-676)”, the binding result in assay [1], in assay [2] and in assay [3] was “binds” throughout.

As for “Flag-tagged UAF1-Δ635-677 expressed in 293T cells (from UniProt Q8TAF3 1-634)”, in assay [4], the binding entry is listed as “binds”.

Turning to “UAF1 expressed in SF9 cells from pFastBac without the N-terminal His tag, Example 10 (from UniProt Q8TAF3 1-676)”, the binding entry in assay [5] was “binds”.

As to “Flag-tagged UAF1-Δ546-585 expressed in 293T cells (from UniProt Q8TAF3 1-676)”, the binding result in assay [4] is given as “binds”.
